The effect of the compound repeats well; differences between the knockouts mostly do not.
Test system: HCC-38
Test: relative cell number vs DMSO control (72 h) (% of DMSO); higher = less growth inhibition (more cells)
Procedure: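 QMAP-Seq: a pool of 5 breast cancer cell lines (ZR-75-1, SKBR3, HCC-38, MDA-MB-231, BT-20), each carrying 12 doxycycline-inducible Cas9 sgRNA perturbations (11 knockouts plus non-targeting sgNT), was treated with compounds for 72 h at four 10-fold doses (10 nM-10 uM or 1 nM-1 uM range). Barcodes were amplified and sequenced, and cell number was interpolated from 293T spike-in standard curves. The result is expressed as % of the median of DMSO wells. Two biological replicates.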

CN1CCN(CCCN2c3ccccc3Sc3ccc(C(F)(F)F)cc32)CC1 [Trifluoperazine]
Settings	relative cell number
sgRNA knockout: sgATF3, 10 nM	101
sgRNA knockout: sgATF3, 100 nM	99.7
sgRNA knockout: sgATF3, 1000 nM	104.6
sgRNA knockout: sgATF3, 10000 nM	74.9
sgRNA knockout: sgATF4, 10 nM	93.4
sgRNA knockout: sgATF4, 100 nM	87.8
sgRNA knockout: sgATF4, 1000 nM	113
sgRNA knockout: sgATF4, 10000 nM	71
sgRNA knockout: sgATF6, 10 nM	95.1
sgRNA knockout: sgATF6, 100 nM	90.5
sgRNA knockout: sgATF6, 1000 nM	92.3
sgRNA knockout: sgATF6, 10000 nM	83.8
sgRNA knockout: sgATG7, 10 nM	105
sgRNA knockout: sgATG7, 100 nM	91
sgRNA knockout: sgATG7, 1000 nM	99.7
sgRNA knockout: sgATG7, 10000 nM	81.5
sgRNA knockout: sgERN1, 10 nM	88.3
sgRNA knockout: sgERN1, 100 nM	92.6
sgRNA knockout: sgERN1, 1000 nM	108
sgRNA knockout: sgERN1, 10000 nM	82.2
sgRNA knockout: sgHSF1, 10 nM	75.6
sgRNA knockout: sgHSF1, 100 nM	104
sgRNA knockout: sgHSF1, 1000 nM	85.7
sgRNA knockout: sgHSF1, 10000 nM	76.7
sgRNA knockout: sgHSF2, 10 nM	88.3
sgRNA knockout: sgHSF2, 100 nM	95.6
sgRNA knockout: sgHSF2, 1000 nM	106
sgRNA knockout: sgHSF2, 10000 nM	74.5
sgRNA knockout: sgKEAP1, 10 nM	82.1
sgRNA knockout: sgKEAP1, 100 nM	97.3
sgRNA knockout: sgKEAP1, 1000 nM	87.4
sgRNA knockout: sgKEAP1, 10000 nM	91.1
sgRNA knockout: sgNFE2L2, 10 nM	94.13
sgRNA knockout: sgNFE2L2, 100 nM	84
sgRNA knockout: sgNFE2L2, 1000 nM	112
sgRNA knockout: sgNFE2L2, 10000 nM	70.2
sgRNA knockout: sgSLC35F2, 10 nM	99.9
sgRNA knockout: sgSLC35F2, 100 nM	88.4
sgRNA knockout: sgSLC35F2, 1000 nM	115
sgRNA knockout: sgSLC35F2, 10000 nM	77.1
sgRNA knockout: sgXBP1, 10 nM	95.3
sgRNA knockout: sgXBP1, 100 nM	98.5
sgRNA knockout: sgXBP1, 1000 nM	115
sgRNA knockout: sgXBP1, 10000 nM	75

CN1CCc2c(c3ccccc3n2Cc2ccc(C(=O)NO)cc2)C1 [TubastatinA]
Settings	relative cell number
sgRNA knockout: sgATF3, 10 nM	110.1
sgRNA knockout: sgATF3, 100 nM	88.8
sgRNA knockout: sgATF3, 1000 nM	97.1
sgRNA knockout: sgATF3, 10000 nM	67.1
sgRNA knockout: sgATF4, 10 nM	99.8
sgRNA knockout: sgATF4, 100 nM	96.5
sgRNA knockout: sgATF4, 1000 nM	109
sgRNA knockout: sgATF4, 10000 nM	67.7
sgRNA knockout: sgATF6, 10 nM	106
sgRNA knockout: sgATF6, 100 nM	97.6
sgRNA knockout: sgATF6, 1000 nM	108
sgRNA knockout: sgATF6, 10000 nM	62.8
sgRNA knockout: sgATG7, 10 nM	103
sgRNA knockout: sgATG7, 100 nM	88.5
sgRNA knockout: sgATG7, 1000 nM	105
sgRNA knockout: sgATG7, 10000 nM	62.9
sgRNA knockout: sgERN1, 10 nM	104
sgRNA knockout: sgERN1, 100 nM	88.9
sgRNA knockout: sgERN1, 1000 nM	98.8
sgRNA knockout: sgERN1, 10000 nM	68.3
sgRNA knockout: sgHSF1, 10 nM	102
sgRNA knockout: sgHSF1, 100 nM	78
sgRNA knockout: sgHSF1, 1000 nM	101
sgRNA knockout: sgHSF1, 10000 nM	81.8
sgRNA knockout: sgHSF2, 10 nM	103
sgRNA knockout: sgHSF2, 100 nM	87.3
sgRNA knockout: sgHSF2, 1000 nM	109
sgRNA knockout: sgHSF2, 10000 nM	67.6
sgRNA knockout: sgKEAP1, 10 nM	94.7
sgRNA knockout: sgKEAP1, 100 nM	89.6
sgRNA knockout: sgKEAP1, 1000 nM	96
sgRNA knockout: sgKEAP1, 10000 nM	69.9
sgRNA knockout: sgNFE2L2, 10 nM	109
sgRNA knockout: sgNFE2L2, 100 nM	88
sgRNA knockout: sgNFE2L2, 1000 nM	112
sgRNA knockout: sgNFE2L2, 10000 nM	59.6
sgRNA knockout: sgSLC35F2, 10 nM	106
sgRNA knockout: sgSLC35F2, 100 nM	87.2
sgRNA knockout: sgSLC35F2, 1000 nM	100
sgRNA knockout: sgSLC35F2, 10000 nM	69.1
sgRNA knockout: sgXBP1, 10 nM	111.8
sgRNA knockout: sgXBP1, 100 nM	90.4
sgRNA knockout: sgXBP1, 1000 nM	99.9
sgRNA knockout: sgXBP1, 10000 nM	65.5

CCC[C@H](NC(=O)/C(C#N)=C/c1cccc(Br)n1)c1ccccc1 [WP1130]
Settings	relative cell number
sgRNA knockout: sgATF3, 10 nM	93.3
sgRNA knockout: sgATF3, 100 nM	99.2
sgRNA knockout: sgATF3, 1000 nM	76
sgRNA knockout: sgATF3, 10000 nM	7.06
sgRNA knockout: sgATF4, 10 nM	91.3
sgRNA knockout: sgATF4, 100 nM	106
sgRNA knockout: sgATF4, 1000 nM	78.4
sgRNA knockout: sgATF4, 10000 nM	6.4
sgRNA knockout: sgATF6, 10 nM	101
sgRNA knockout: sgATF6, 100 nM	109
sgRNA knockout: sgATF6, 1000 nM	89.8
sgRNA knockout: sgATF6, 10000 nM	6.39
sgRNA knockout: sgATG7, 10 nM	91.1
sgRNA knockout: sgATG7, 100 nM	96.6
sgRNA knockout: sgATG7, 1000 nM	88.5
sgRNA knockout: sgATG7, 10000 nM	7.46
sgRNA knockout: sgERN1, 10 nM	104
sgRNA knockout: sgERN1, 100 nM	103
sgRNA knockout: sgERN1, 1000 nM	88.5
sgRNA knockout: sgERN1, 10000 nM	8.46
sgRNA knockout: sgHSF1, 10 nM	102
sgRNA knockout: sgHSF1, 100 nM	80.73
sgRNA knockout: sgHSF1, 1000 nM	111
sgRNA knockout: sgHSF1, 10000 nM	6.7
sgRNA knockout: sgHSF2, 10 nM	102
sgRNA knockout: sgHSF2, 100 nM	102
sgRNA knockout: sgHSF2, 1000 nM	96.2
sgRNA knockout: sgHSF2, 10000 nM	7.74
sgRNA knockout: sgKEAP1, 10 nM	104
sgRNA knockout: sgKEAP1, 100 nM	105
sgRNA knockout: sgKEAP1, 1000 nM	85
sgRNA knockout: sgKEAP1, 10000 nM	9.25
sgRNA knockout: sgNFE2L2, 10 nM	84.2
sgRNA knockout: sgNFE2L2, 100 nM	111
sgRNA knockout: sgNFE2L2, 1000 nM	80
sgRNA knockout: sgNFE2L2, 10000 nM	7.1
sgRNA knockout: sgSLC35F2, 10 nM	87.2
sgRNA knockout: sgSLC35F2, 100 nM	104
sgRNA knockout: sgSLC35F2, 1000 nM	83.5
sgRNA knockout: sgSLC35F2, 10000 nM	6.97
sgRNA knockout: sgXBP1, 10 nM	87.8
sgRNA knockout: sgXBP1, 100 nM	112
sgRNA knockout: sgXBP1, 1000 nM	86.9
sgRNA knockout: sgXBP1, 10000 nM	7.86
